Results are given in words; binding and its absence hold for the method and conditions named. In cells and extracts the contact can be indirect. Some results given as binding are weak or reduced against the parent protein; the word gives no strength.

The chains behind the UniProt entries cited, without tags or fusion partners. Where a name states a change or a piece, a line headed by the entry shows the natural chain unless it says otherwise.
UniProt Q8NBP7: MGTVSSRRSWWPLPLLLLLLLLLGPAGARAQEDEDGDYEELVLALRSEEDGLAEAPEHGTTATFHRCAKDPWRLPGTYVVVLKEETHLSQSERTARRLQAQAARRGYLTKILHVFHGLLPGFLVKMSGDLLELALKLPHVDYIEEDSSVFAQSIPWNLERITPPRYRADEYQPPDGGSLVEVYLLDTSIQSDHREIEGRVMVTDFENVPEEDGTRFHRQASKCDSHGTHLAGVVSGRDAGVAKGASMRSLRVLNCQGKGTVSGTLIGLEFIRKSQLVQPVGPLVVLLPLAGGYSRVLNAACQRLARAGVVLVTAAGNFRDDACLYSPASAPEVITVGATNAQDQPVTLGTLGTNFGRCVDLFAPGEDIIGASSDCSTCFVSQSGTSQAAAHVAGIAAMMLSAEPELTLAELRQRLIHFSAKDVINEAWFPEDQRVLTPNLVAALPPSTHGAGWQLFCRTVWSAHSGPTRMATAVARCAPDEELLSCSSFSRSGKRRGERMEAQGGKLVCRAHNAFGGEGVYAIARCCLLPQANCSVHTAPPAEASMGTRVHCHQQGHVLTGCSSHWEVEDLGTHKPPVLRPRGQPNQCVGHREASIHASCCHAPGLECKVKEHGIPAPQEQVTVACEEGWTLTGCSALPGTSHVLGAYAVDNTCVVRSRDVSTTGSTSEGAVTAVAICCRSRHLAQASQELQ

Our source for the binding values is patent US20090275504A1.

The test concerns the target mature PCSK9 (after autocatalytic cleavage at Gln152), secreted from HepG2 cells (human) (UniProt Q8NBP7). Put plainly: co-immunoprecipitation from 32P-labelled HepG2 media, SDS-PAGE, phosphorimaging.

For “PCSK9 propeptide (prodomain), secreted from HepG2 cells (from UniProt Q8NBP7 31-152)”, the binding entry is given as “binds”.
